This assay deals with β-transducin repeat-containing protein (β-TrCP) (human (in HCT116 and P53R cells)). Description: co-IP; Dynabeads protein G loaded with 3 μg antibody of the target protein or IgG; cell lysate supernatant incubated with beads overnight at 4 °C; washed three times with lysis buffer; bound proteins and inputs detected by immunoblotting; HCT116 and P53R cells (Fig. 6G). (Immunoblotting shows a protein as a band on a membrane.)

No constants are given. Whether binding was seen depends on the method and setting. Binding seen in cells or lysates may run through a third protein. Binding can be weak; no strength is given.

B1: Ubiquitin domain containing 1 (UBTD1) (protein, UniProt Q9HAC8 1-227)
chain: MGNCVGRQRRERPAAPGHPRKRAGRNEPLKKERLKWKSDYPMTDGQLRSKRDEFWDTAPAFEGRKEIWDALKAAAYAAEANDHELAQAILDGASITLPHGTLCECYDELGNRYQLPIYCLSPPVNLLLEHTEEESLEPPEPPPSVRREFPLKVRLSTGKDVRLSASLPDTVGQLKRQLHAQEGIEPSWQRWFFSGKLLTDRTRLQETKIQKDFVIQVIINQPPPPQD
In the case of B1, the binding entry was “binds”.
